From patent US20120134991A1
No constants are given. Whether binding was seen depends on the method and setting. For part of these data: In cells and extracts the contact can be indirect. Some entries that bind do so weakly or less than the wild type. Tags and fused reporters may be left off the sequences shown.

Protein sequences, listed by entry. Tags and fused reporters are not part of them.
UniProt P18901: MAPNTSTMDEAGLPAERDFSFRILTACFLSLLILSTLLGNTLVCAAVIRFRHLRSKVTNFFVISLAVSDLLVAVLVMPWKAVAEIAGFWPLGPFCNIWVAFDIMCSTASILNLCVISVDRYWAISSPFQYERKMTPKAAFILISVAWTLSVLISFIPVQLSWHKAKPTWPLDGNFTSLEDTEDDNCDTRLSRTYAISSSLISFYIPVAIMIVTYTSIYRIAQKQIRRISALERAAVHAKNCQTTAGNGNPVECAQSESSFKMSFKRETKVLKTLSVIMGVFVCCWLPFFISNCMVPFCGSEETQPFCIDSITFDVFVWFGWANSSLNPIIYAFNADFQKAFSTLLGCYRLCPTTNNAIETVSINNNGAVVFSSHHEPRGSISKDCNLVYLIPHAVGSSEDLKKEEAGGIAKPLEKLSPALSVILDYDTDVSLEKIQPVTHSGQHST

How the values were obtained:
[1] = molecular target: D1 receptor from solubilized rat striatum / prefrontal cortex (rat) (UniProt P18901); assay: GST pull-down, Western blot (FIG. 1E)
[2] = molecular target: D1 receptor from solubilized rat striatum / prefrontal cortex (rat) (UniProt P18901); assay: GST pull-down from rat striatal extract, Western blot (FIG. 1E)
[3] = molecular target: D1 receptor from solubilized rat striatum / prefrontal cortex (rat) (UniProt P18901); assay: GST pull-down from rat striatal extract, Western blot (FIG. 1D)

| binding [1] | binding [2] | binding [3] | Binder |
| --- | --- | --- | --- |
| binds | binds | – | IMKSNGSFPVNRRRV (peptide, not shown: a dimerising Fc or GST) [GST-D2LIL3-29-2 (I256-V270)] |
| – | – | binds | GNCTHPEDMKLCTVIMKSNGSFPVNRRRV (peptide, not shown: a dimerising Fc or GST) [GST-D2IL3-29 (G242-V270)] |
